Values quoted from earlier work as cited in patent US6905677B1, “Combined hepatitis B treatment” (Stichting Leveronderzoek, priority 1999, dated 2005).
At least one compound was matched to its structure with a doubt left.

Tested on: HBV
Conditions: cited from earlier work

SMILES: Nc1ccn([C@@H]2CS[C@H](CO)O2)c(=O)n1 [lamivudine]
- time until HBV DNA and hepatic inflammation may return to pre-treatment levels (after withdrawal of lamivudine): 1-3 months
- emergence of drug resistant mutant strains, share of patients (at 1-2 years of treatment): 14-50 % of patients
